# Source: paper PMC7819943, “Rice protein-binding microarrays: a tool to detect cis-acting elements near promoter regions in rice”
# Sequences of proteins named here, by UniProt entry; tags and fusion partners are left off.
# UniProt Q0JBA9, entry or part of it: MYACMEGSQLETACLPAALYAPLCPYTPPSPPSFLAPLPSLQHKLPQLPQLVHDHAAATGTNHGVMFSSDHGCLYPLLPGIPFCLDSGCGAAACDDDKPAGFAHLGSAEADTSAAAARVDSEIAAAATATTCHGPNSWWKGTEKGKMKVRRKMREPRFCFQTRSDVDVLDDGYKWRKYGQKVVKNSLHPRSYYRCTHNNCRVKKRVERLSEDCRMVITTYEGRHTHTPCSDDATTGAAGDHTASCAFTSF
# The list shows a part of the results.
# Target: OsWRKY34 (Oryza sativa, UniProt Q0JBA9 1-250)
# Test: protein-binding microarray (RPBM); PBS, 2% BSA, 51.3 ng/ul salmon testes DNA, 50 uM zinc acetate, 200 nM TF, 25 C, 1 h; high values mean tight binding
# Settings: protein: recombinant; tags: N-terminal polyhistidine and DsRed monomer fusion (pET32a); label: CyDye5-dUTP incorporated in the synthesized complementary strand; 3' TTTTT single-stranded linker to array surface; dsDNA, one strand shown
# Procedure, shortened: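 For the binding signal, per-feature fluorescence intensity was read in arbitrary units on an Axon 4000B scanner. Before scanning, a 2% BSA-blocked custom Agilent array made double-stranded with Cy5-dUTP was washed after 1 h at 25 °C with 200 nM protein and 50 µM zinc acetate. The proteins were Ni–NTA-purified transcription factors with N-terminal polyhistidine and DsRed fusions, expressed in E. coli BL21-CodonPlus.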
row,Sequence,binding signal
1,CGTATTAGGTATTTAGCGTCGGTGGCGTCTCTCCTAACCTCGGAGTCACCTAGTGCAG,8440 fluorescence intensity (a.u.)
2,ATTGTTTTCCCCGAACATTGGAGTCGTGTTTGGTTGGTATCGGAGTCACCTAGTGCAG,8690 fluorescence intensity (a.u.)
3,GGCCACACCACACAGGATGGAACCCCAACCCTCGCTCAATCGGAGTCACCTAGTGCAG,8170 fluorescence intensity (a.u.)
4,TGACATGTAGGTCGAACTCGAACGTCTCGAGGGTTTTGACCGGAGTCACCTAGTGCAG,9630 fluorescence intensity (a.u.)
5,TATCCTCTCTACTTTTTCTTAACCTGCACGCTCATGTTGTCGGAGTCACCTAGTGCAG,8710 fluorescence intensity (a.u.)
6,GAATAAAAAAACGTCACATCATTTAATCGTCTTAAGATTACGGAGTCACCTAGTGCAG,8120 fluorescence intensity (a.u.)
7,TTCCCAGTTCACTTGACAGCTCGCAAGGATCCATATGACACGGAGTCACCTAGTGCAG,9160 fluorescence intensity (a.u.)
8,CTCTCTCTCCAATTCCTCCTCGCCTCGGTTGTTTCGTCCCCGGAGTCACCTAGTGCAG,8080 fluorescence intensity (a.u.)
9,ACAGTACTCCTAGTCAAACCCTCTGTTCACCAGTCCGTCGCGGAGTCACCTAGTGCAG,8420 fluorescence intensity (a.u.)
10,GCTACATAATACTACAGAGGCTAGAGGGGCTAATATGAAACGGAGTCACCTAGTGCAG,8620 fluorescence intensity (a.u.)
11,TTATCCCTTTTTTTCTCCTTTCTTATCCCTTTTTTTTTCTCGGAGTCACCTAGTGCAG,13800 fluorescence intensity (a.u.)
12,GTCCTCACCGTCCCCGACCCTCCGCCCACCACTCCCTCGGCGGAGTCACCTAGTGCAG,10700 fluorescence intensity (a.u.)
13,AACGAATTGTTAATTTTAAAAAAGTCAACGGTGTTAAATACGGAGTCACCTAGTGCAG,11800 fluorescence intensity (a.u.)
14,GGTCTATGAGCAGTCATTGGTTCGGGTTGAGGTGAATTTACGGAGTCACCTAGTGCAG,12300 fluorescence intensity (a.u.)
15,CCCTCCCACGGCTGGATCCAGCTCCGCCGCCGCTGTATCTCGGAGTCACCTAGTGCAG,8570 fluorescence intensity (a.u.)
16,GCCGCCGCCGCCGCTTCATCCCGACGCCGAAAGCCCGAAACGGAGTCACCTAGTGCAG,8830 fluorescence intensity (a.u.)
17,TCCTCGCAATTCTAATCTCGGCCATATATATTGCTGCTTGCGGAGTCACCTAGTGCAG,9990 fluorescence intensity (a.u.)
18,TAACTACTCCCACCGTTTCATATTATAAGTCGTTTGATTTCGGAGTCACCTAGTGCAG,11100 fluorescence intensity (a.u.)
19,TTCATTTCTATTGTTATTTCTATTGTTTTGTTATTTTCATCGGAGTCACCTAGTGCAG,10600 fluorescence intensity (a.u.)
20,GAATCTTACACGTGGTCTCCCACACATACACTCATCGCAACGGAGTCACCTAGTGCAG,8170 fluorescence intensity (a.u.)
21,TATATCCACCTTTAATTTCTTCCCTAATATATTCATATCACGGAGTCACCTAGTGCAG,8192 fluorescence intensity (a.u.)

row,Sequence,binding signal
1,AGGGTTTGTCTCGTCCTCACTCCTCACTCTGCTTCCTTGTCGGAGTCACCTAGTGCAG,10500 fluorescence intensity (a.u.)
2,GCGGTCGTCTACCTCGCTCCGCTGCGGCGTTCTCTCCCCGCGGAGTCACCTAGTGCAG,8720 fluorescence intensity (a.u.)
3,TTGGCTCCTATCTTTCATTTTTTCATCCACAGGATCTTGCCGGAGTCACCTAGTGCAG,8930 fluorescence intensity (a.u.)
4,GTTTGTTGTAGCTTTCTGTATATCACCATAGTACTTTGTACGGAGTCACCTAGTGCAG,8100 fluorescence intensity (a.u.)
5,CCGTGTGCGCATTTTGCGCTTTGGTCCTTGCCGCCCTTACCGGAGTCACCTAGTGCAG,10200 fluorescence intensity (a.u.)
6,AAAAATCCCTGCGCGTTTCTCATATGCTTTATATACAACACGGAGTCACCTAGTGCAG,9300 fluorescence intensity (a.u.)
7,TAGTGTTAAGTCAAATGATCACCTCTTTTTTTCTGTTTGACGGAGTCACCTAGTGCAG,8610 fluorescence intensity (a.u.)
8,ACCCTGATTAACGATTTCCATCAACATCACAACGCCACCACGGAGTCACCTAGTGCAG,9300 fluorescence intensity (a.u.)
9,ATAGGAGGGGTCATATTAGTAGGGTTTTTTTTGGACGGAGCGGAGTCACCTAGTGCAG,8260 fluorescence intensity (a.u.)
10,CATCTTTTTGTTTAACATTTCCATTACATTATACTATATGCGGAGTCACCTAGTGCAG,8870 fluorescence intensity (a.u.)
11,TCTTCTCCAGTGAGCCGTGCCCGTCTGCTCCTCCTCCAATCGGAGTCACCTAGTGCAG,11200 fluorescence intensity (a.u.)
12,CTCTGAATGACTTCCTAACAAATTCTCTTTTTACCTCTGCCGGAGTCACCTAGTGCAG,8380 fluorescence intensity (a.u.)
13,GTATCATACCATCCGAACTAGATACTGTTCTCATTTGCCACGGAGTCACCTAGTGCAG,10500 fluorescence intensity (a.u.)
14,CAAGCACTGGATTGTTATTTCCCTTGTGTGCGTTATATATCGGAGTCACCTAGTGCAG,9150 fluorescence intensity (a.u.)
15,ATCTGTGTTTCTCTGTCAATTTTTTCATGTGATCCAAACACGGAGTCACCTAGTGCAG,8130 fluorescence intensity (a.u.)
16,TCTCCACGCTGCACCGTGCATCTATGCCTAGTTTGCTTACCGGAGTCACCTAGTGCAG,8680 fluorescence intensity (a.u.)
17,CCGTCTGCCACGTCATTTTCGCCGCCCTCTGGGAGGGCGACGGAGTCACCTAGTGCAG,8280 fluorescence intensity (a.u.)
18,GGGTGATTTGTTGTAATGACGCGTGTGGTGGGGTGTGTGGCGGAGTCACCTAGTGCAG,11200 fluorescence intensity (a.u.)
19,TCTCGCACGCTGCTTGCGGCGTTAGGCCGGCCCATATAACCGGAGTCACCTAGTGCAG,8100 fluorescence intensity (a.u.)
20,TACTACTACTACTGCTACTACTGGGTTCTGGAGTGATTACCGGAGTCACCTAGTGCAG,10800 fluorescence intensity (a.u.)
21,ACTCACAAGCCTTGACATGGTCTTGTACTCACTTTTTTTCCGGAGTCACCTAGTGCAG,9240 fluorescence intensity (a.u.)

# 2 entries drawn at random from the list so far, as already listed:
row,Sequence,binding signal
10,GCTACATAATACTACAGAGGCTAGAGGGGCTAATATGAAACGGAGTCACCTAGTGCAG,8620 fluorescence intensity (a.u.)
15,CCCTCCCACGGCTGGATCCAGCTCCGCCGCCGCTGTATCTCGGAGTCACCTAGTGCAG,8570 fluorescence intensity (a.u.)
